This assay has as its target T1, GFP-Cdc42ep5^WT (murine Cdc42ep5, N-terminal GFP fusion) (murine) (UniProt Q9Z0X0).
T1 sequence: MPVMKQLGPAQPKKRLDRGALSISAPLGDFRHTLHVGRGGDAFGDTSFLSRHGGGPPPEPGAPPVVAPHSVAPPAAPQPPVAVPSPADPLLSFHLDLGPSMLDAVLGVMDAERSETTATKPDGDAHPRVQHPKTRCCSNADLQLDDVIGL
Kind of assay: co-IP; anti-GFP immunoprecipitation from lysates of 690.cl2 cells expressing GFP-tagged constructs; lysis buffer 50 mM Tris-HCl pH 7.5, 150 mM NaCl, 1% Triton X-100, 10% glycerol, 2 mM EDTA; Protein G beads, 4°C; blot for Sept9 and GFP.

No constants are given. Whether binding was seen depends on the method and setting. In cells and extracts the contact can be indirect. Some results given as binding are weak or reduced against the parent protein; the word gives no strength. Where a sequence is shown, tags or fusion partners need not be part of it.

B1: Sept9 (murine, endogenous) (protein, UniProt Q80UG5 1-583)
chain: MKKSYSGVTRTSSGRLRRLADPTGPALKRSFEVEEIEPPNSTPPRRVQTPLLRATVASSSQKFQDLGVKNSEPAARLVDSLSQRSPKPSLRRVELAGAKAPEPMSRRTEISIDISSKQVESTASAAGPSRFGLKRAEVLGHKTPEPVPRRTEITIVKPQESVLRRVETPASKIPEGSAVPATDAAPKRVEIQVPKPAEAPNCPLPSQTLENSEAPMSQLQSRLEPRPSVAEVPYRNQEDSEVTPSCVGDMADNPRDAMLKQAPASRNEKAPMEFGYVGIDSILEQMRRKAMKQGFEFNIMVVGQSGLGKSTLINTLFKSKISRKSVQPTSEERIPKTIEIKSITHDIEEKGVRMKLTVIDTPGFGDHINNENCWQPIMKFINDQYEKYLQEEVNINRKKRIPDTRVHCCLYFIPATGHSLRPLDIEFMKRLSKVVNIVPVIAKADTLTLEERVYFKQRITADLLSNGIDVYPQKEFDEDAEDRLVNEKFREMIPFAVVGSDHEYQVNGKRILGRKTKWGTIEVENTTHCEFAYLRDLLIRTHMQNIKDITSNIHFEAYRVKRLNEGNSAMANGIEKEPEAQEM
As to B1, the binding entry is given as “binds”.

The values above are taken from article PMC7480113.
